# Measured values reported in the supplement of paper PMC8728848.
# This is one part of the list.
# B1: PX9961KLbvu-535-38-535 (Bacteroides vulgatus) (protein)
# chain: DKAYTDAESYTKGLHKIYSVWALSGQDGSSSSDISGLDAGNTALLRCWWTLQEQPTDEMKNAWNDAWCTEVNYMTWTTNKVEPIEGVYQRCMYIVALVNEFLKNIPNAPESIDKESYIAQARFNRAFAYYVLMDMFALPPFITEKNYSIEPAPLSREDLFNWIEAELNEIKPNLPSPRSEYGVADQAVASALLARMYLNAEIYTGKARYTECINACNEVIKAGYQLADNYADLFKADNGENPDTKKEIIYPIIFDGDKTQSWGMAAIIIGARGAEDKDVLLAHSGVDQGWAGFRATSNLVHLFDFQNDEEPKASEIQDKRGIFYDKGRSIDITSSVSGTFETEGWSVFKFSNLNSNGQPGKNTLWVDTDFPMFRLGDIYLMYAEAVARGGEGSKASAVEYINALRKRAYGDDKHNISENWLEENNFRNLLDERGRELYWEGIRRTDLVRFDLLTSGSYTWDFKGGINTGVGVNKRYNVYPIPVTDLTVNGNLQQNEGY
# Key:
# Assay in all cases: glycan array binding signal (z-score within array); higher = stronger binding
# Details in all cases: glycan notation: IUPAC condensed, linker removed
# [1] = target: Fuc(a1-2)Gal
# Procedure, shortened: (§1)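 Negative Z-scores can be read as non-binding. The Z-score is calculated within each array and then averaged across arrays of one protein sequence at different concentrations or buffers and across linkers. Arrays, 3228 in all, were curated from the Consortium for Functional Glycomics database and kept only where the protein sequence was available.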
# [2] = target: Fuc(a1-2)Gal(b1-3)GalNAc
# Procedure, shortened: as §1
# [3] = target: Fuc(a1-2)Gal(b1-3)GalNAc(a1-3)[Fuc(a1-2)]Gal(b1-4)Glc
# Procedure, shortened: as §1
# [4] = target: Fuc(a1-2)Gal(b1-3)GalNAc(a1-3)[Fuc(a1-2)]Gal(b1-4)GlcNAc
# Procedure, shortened: as §1
# [5] = target: Fuc(a1-2)Gal(b1-3)GalNAc(b1-3)Gal
# Procedure, shortened: as §1
# [6] = target: Fuc(a1-2)Gal(b1-3)GalNAc(b1-3)Gal(a1-4)Gal(b1-4)Glc
# Procedure, shortened: as §1
# [7] = target: Fuc(a1-2)Gal(b1-3)GalNAc(b1-4)[Neu5Ac(a2-3)]Gal(b1-4)Glc
# Procedure, shortened: as §1
# [8] = target: Fuc(a1-2)Gal(b1-3)GlcNAc
# Procedure, shortened: as §1
# [9] = target: Fuc(a1-2)Gal(b1-3)GlcNAc(b1-2)Man(a1-3)[Fuc(a1-2)Gal(b1-3)GlcNAc(b1-2)Man(a1-6)]Man(b1-4)GlcNAc(b1-4)GlcNAc
# Procedure, shortened: as §1
# [10] = target: Fuc(a1-2)Gal(b1-3)GlcNAc(b1-2)Man(a1-3)[Fuc(a1-2)Gal(b1-3)GlcNAc(b1-2)Man(a1-6)]Man(b1-4)GlcNAc(b1-4)[Fuc(a1-6)]GlcNAc
# Procedure, shortened: as §1
# [11] = target: Fuc(a1-2)Gal(b1-3)GlcNAc(b1-3)Gal(b1-4)Glc
# Procedure, shortened: as §1
# [12] = target: Fuc(a1-2)Gal(b1-3)GlcNAc(b1-3)GalNAc
# Procedure, shortened: as §1
# [13] = target: Fuc(a1-2)Gal(b1-3)GlcNAc(b1-3)[Fuc(a1-2)Gal(b1-3)GlcNAc(b1-6)]GalNAc
# Procedure, shortened: as §1
# [14] = target: Fuc(a1-2)Gal(b1-3)GlcNAc(b1-3)[Gal(b1-4)GlcNAc(b1-6)]Gal(b1-4)Glc
# Procedure, shortened: as §1
# [15] = target: Fuc(a1-2)Gal(b1-3)GlcNAc(b1-3)[Neu5Ac(a2-6)Gal(b1-4)GlcNAc(b1-6)]Gal(b1-4)Glc
# Procedure, shortened: as §1
# [16] = target: Fuc(a1-2)Gal(b1-3)GlcNAc6S
# Procedure, shortened: as §1
# [17] = target: Fuc(a1-2)Gal(b1-3)[Fuc(a1-4)]GlcNAc
# Procedure, shortened: as §1
# [18] = target: Fuc(a1-2)Gal(b1-3)[Fuc(a1-4)]GlcNAc(b1-2)Man(a1-3)[Fuc(a1-2)Gal(b1-3)[Fuc(a1-4)]GlcNAc(b1-2)Man(a1-3)]Man(b1-4)GlcNAc(b1-4)GlcNAc
# Procedure, shortened: as §1
# [19] = target: Fuc(a1-2)Gal(b1-3)[Fuc(a1-4)]GlcNAc(b1-2)Man(a1-3)[Fuc(a1-2)Gal(b1-3)[Fuc(a1-4)]GlcNAc(b1-2)Man(a1-6)]Man(b1-4)GlcNAc(b1-4)[Fuc(a1-6)]GlcNAc(b1-4)[Fuc(a1-6)]GlcNAc
# Procedure, shortened: as §1
# [20] = target: Fuc(a1-2)Gal(b1-3)[Fuc(a1-4)]GlcNAc(b1-3)[Fuc(a1-3)[Gal(b1-4)]GlcNAc(b1-6)]Gal(b1-4)Glc
# Procedure, shortened: as §1
# [21] = target: Fuc(a1-2)Gal(b1-3)[Fuc(a1-4)]GlcNAc(b1-3)[Gal(b1-4)GlcNAc(b1-6)]Gal(b1-4)Glc
# Procedure, shortened: as §1
# [22] = target: Fuc(a1-2)Gal(b1-4)Glc
# Procedure, shortened: as §1
# [23] = target: Fuc(a1-2)Gal(b1-4)Glc6S
# Procedure, shortened: as §1
# [24] = target: Fuc(a1-2)Gal(b1-4)GlcNAc
# Procedure, shortened: as §1
# [25] = target: Fuc(a1-2)Gal(b1-4)GlcNAc(b1-2)Man
# Procedure, shortened: as §1
# [26] = target: Fuc(a1-2)Gal(b1-4)GlcNAc(b1-2)Man(a1-3)[Fuc(a1-2)Gal(b1-4)GlcNAc(b1-2)Man(a1-6)]Man(b1-4)GlcNAc(b1-4)GlcNAc
# Procedure, shortened: as §1
# [27] = target: Fuc(a1-2)Gal(b1-4)GlcNAc(b1-2)Man(a1-3)[Fuc(a1-2)Gal(b1-4)GlcNAc(b1-2)Man(a1-6)]Man(b1-4)GlcNAc(b1-4)[Fuc(a1-6)]GlcNAc
# Procedure, shortened: as §1
# [28] = target: Fuc(a1-2)Gal(b1-4)GlcNAc(b1-2)[Fuc(a1-2)Gal(b1-4)GlcNAc(b1-4)]Man(a1-3)[Fuc(a1-2)Gal(b1-4)GlcNAc(b1-2)Man(a1-6)]Man(b1-4)GlcNAc(b1-4)GlcNAc
# Procedure, shortened: as §1
# [29] = target: Fuc(a1-2)Gal(b1-4)GlcNAc(b1-3)Gal(b1-4)GlcNAc
# Procedure, shortened: as §1
# [30] = target: Fuc(a1-2)Gal(b1-4)GlcNAc(b1-3)Gal(b1-4)GlcNAc(b1-2)Man(a1-3)[Fuc(a1-2)Gal(b1-4)GlcNAc(b1-3)Gal(b1-4)GlcNAc(b1-2)Man(a1-6)]Man(b1-4)GlcNAc(b1-4)GlcNAc
# Procedure, shortened: as §1
binder,measurement,setting,value
B1,glycan array binding signal (z-score),[1],0.633
same,glycan array binding signal (z-score),[2],0.513
same,glycan array binding signal (z-score),[3],0.548
same,glycan array binding signal (z-score),[4],-0.462
same,glycan array binding signal (z-score),[5],-0.097
same,glycan array binding signal (z-score),[6],-0.926
same,glycan array binding signal (z-score),[7],-0.183
same,glycan array binding signal (z-score),[8],0.03
same,glycan array binding signal (z-score),[9],0.87
same,glycan array binding signal (z-score),[10],0.001
same,glycan array binding signal (z-score),[11],-0.378
same,glycan array binding signal (z-score),[12],1.02
same,glycan array binding signal (z-score),[13],0.03
same,glycan array binding signal (z-score),[14],-0.255
same,glycan array binding signal (z-score),[15],0.204
same,glycan array binding signal (z-score),[16],0.498
same,glycan array binding signal (z-score),[17],-0.042
same,glycan array binding signal (z-score),[18],-0.623
same,glycan array binding signal (z-score),[19],0.332
same,glycan array binding signal (z-score),[20],-0.661
same,glycan array binding signal (z-score),[21],-0.812
same,glycan array binding signal (z-score),[22],-0.031
same,glycan array binding signal (z-score),[23],-0.986
same,glycan array binding signal (z-score),[24],-0.803
same,glycan array binding signal (z-score),[25],0.5
same,glycan array binding signal (z-score),[26],0.043
same,glycan array binding signal (z-score),[27],0.549
same,glycan array binding signal (z-score),[28],2.87
same,glycan array binding signal (z-score),[29],-0.646
same,glycan array binding signal (z-score),[30],0.9

# For reference, some entries already given.
binder,measurement,setting,value
B1,glycan array binding signal (z-score),[22],-0.031
same,glycan array binding signal (z-score),[23],-0.986
